Among the data in the RNAGym collection of RNA variant scans (doi:10.1126/science.aae0568) are yeast fitness values, retold here.

Variants at the floor of the assay are shown more often than the library holds them. Where only a bound is given, the exact number is not on record here.

To fix the notation:
B1: tRNA (parent)
chain: GUUCCGUUGGCGUAAUGGUAACGCGUCUCCCUCCUAAGGAGAAGACUGCGGGUUCGAGUCCCGUACGGAACG

In this series the parent is B1. The experiment in a line: yeast fitness relative to wild type (ratio to wild type); higher = fitter; tRNA-Arg(CCU), competitive growth, 37 C, YPD. Summed up:
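Amplicons of the tRNA-Arg(CCU) gene were sequenced, 100-nucleotide paired-end, from the start population and from each end population of a pooled yeast competition. The competition, in six parallel replicates, lasted 24 hours in YPD at 37°C. Fitness relative to wild type was calculated from changes in genotype frequencies. Genotypes had to have ≥ 100 starting reads, and estimates < 0.5 were set to 0.5.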
Consider GUUCCGUUGGCGUAAUGGUAGCGCGUAUCCCUCCUAAGGAGAAGACUGCGGGUUCGAGUCCCGUACGGAACG [A21G C27A], for which the yeast fitness was found to be 0.757.
In the case of GCUCCGUUGGCGUAAUGGUACCGCGUCUCCCUCCUAAGGAGAAGACUGCGGGUUCGAGUCCGGUACGGAACG [U2C A21C C62G], the yeast fitness is at most 0.5.
GUUACCUUGGCGUAAUGGUAACGCGUCUCCCUCCUAAGGAGAAGACUGCGGGUUUGAGUCCCGUACGGAACG [C4A G6C C55U]: the yeast fitness is at most 0.5.
As for GUUCCGUUGGUGCAAUGGUAACGAGUCUCCCUCCUAAGGAGACGACUGCCGGUUCGAGUCCCGUACGGAACG [C11U U13C C24A A43C G50C], the figure is at most 0.5; as for GUUCGGUUGGCGUUAUGGUUACGCGUCUCCCUCCUAAGGAAAAGACUGCGGGUUCGGGUCCCGUACGGAACG [C5G A14U A20U G41A A57G], at most 0.5; as for GUUCCGCUCGCGUAAUGGUAACGCGUCUCCCUCCUAAGGAGAAGACUGCGCGUUCGAGUCCCGUACGGAACG [U7C G9C G51C], at most 0.5.
With GUUCCGUUGGCGUAAUGGUAACGUGUCUCCCUCUUAAGGAGAAGACUGCGGGUUUGAGUUCCGUACGGAACG [C24U C34U C55U C60U] the figure was at most 0.5; with GUUCUGUUGGCGUAACGGUAACGCGUCUCCCUCCUAAGGAGAAGACUGGGGGUUCGAGUCCCGUAUGGAACG [C5U U16C C49G C66U], at most 0.5.
With GUUCCCUUGGCGUAAGGGUAACGCGUCUCCCUCCAAAGGAGAAGACUGCGCGUUCGAGUCCCGUACGAAACG [G6C U16G U35A G51C G68A] the figure was at most 0.5; with GUUCCGUUGACGUCAUGGUAACGCGUCUACCUCCUAAGGAGAAGACUGCGGGUUCGAGUCCCGUACGGAACG [G10A A14C C29A], at most 0.5.
As to GUUCCGUAAGCGUAAUGGUAACGCGUCUCCCUCCUAAGGGGAAGACUGCGGGUUCGCGUCCUGUACGGAACG [U8A G9A A40G A57C C62U], the yeast fitness is at most 0.5.
As for GAUCCGUUGGCGUAAUCGUAACGCGUCUCCCUCCUAAGGAGAAGACUGCGGGUUCGAGUCCCGUACGGAUCG [U2A G17C A70U], the figure is 0.572; as for GUUCUGUUGGCGUAAUGGUAACGCGUGUCCCUGCUAAGGAGCAGACUGCGGGUUCGAGUCCCGAACGGAACG [C5U C27G C33G A42C U64A], at most 0.5.
As for GUUCCGUUGGCGUAAUGGUAACGCGUCUCCCUCCUAAGGAGAAGAUUGCGGGUUCGAGGCCCGUACGGAACG [C46U U59G], the figure is 0.962.
On to GUUCCGUUGGCGUAAUGGUAACGCGUCUCCCUCCUAAGGAGAAGAUUGCGGGUUCGAGCCCCGUACGGAACG [C46U U59C], for which the yeast fitness was determined as 1.03.
As for GUUCCGUUGGCGUAAUGGUAACGCGUCUGCCUCCAAAGGAGAAGACUGCGGGUUCGAGUCCCGCACGGAACG [C29G U35A U64C], the figure is at most 0.5.
As to GUUCCAUUCGCGUAGUGGUAACGCGUCUCCCGCCUAAGGAGAAGACUGCGGGUUCGAGUCCCGUACGGAACG [G6A G9C A15G U32G], the yeast fitness is at most 0.5.
As for GUUCCGUUGGCGUAAUAGUAACGCGUCUCCCUCCUAAGGAGAAGACUGCGGGUUGGAGUCCCGUGCGGAACG [G17A C55G A65G], the figure is at most 0.5; as for GUUCCGUUGGCGUAAUGGUGACGCGUCUCCCUCCUAAGGAGACGACUACGGGUUCGAGUCCCGUACGGAUCG [A20G A43C G48A A70U], at most 0.5; as for GUUCCCUUGGCGUAAUGGUAACGCGUCUCCCUCCUAAGGUGAAGACUGCGGGUUCGAGUCACCUACGGAACG [G6C A40U C61A G63C], at most 0.5.
With GUUCCGUUGGCGUAAUGGUAACGCGUCUCCCUCCUAUGGAGGAGUCUGCGGGUUCGAGUCCCGUUCGGAACG [A37U A42G A45U A65U] the figure was at most 0.5.
As for GUUCCGUUGGCGUAAUGGUAACGCGUCUCCCUCCUAAGGAGAAGACUGCGGGUCAGAGUCCGGUACGGGACG [U54C C55A C62G A69G], the figure is at most 0.5; as for GUUUCGUUGGCGUAAUGGUAACGUGUCUCCCUCCUAAGGAGAAGACUGCGGGUUUGAGUCCCGUACGGAACG [C4U C24U C55U], at most 0.5.
For GUUCCGUUGGCGUAAUGGUAACGCGUCUCCCUCGUAAGGUGAAGACAGCGGGUUCGAGUCCCGUACCGAACG [C34G A40U U47A G67C], the yeast fitness was at most 0.5.
With GUUCCAUUGGCAUAAUGGUGAGGCGACUCCCUCCUAAGGAGAAGACUCCGGGUUCGAGUCCCGUACGGAACG [G6A G12A A20G C22G U26A G48C] the figure was at most 0.5.
As for GUUCCAUUGGCGUAAUGGUAAUGCGUCUCCCUCCUAGGGAGAAGACUGAGGGUUCGAGUCCCGUACGGAACG [G6A C22U A37G C49A], the figure is at most 0.5; as for GUUUCGUUGGUGUAAUGGUAAGGCGUCUCCCUCCUAAGGAGAAGACUGCGGGUUCGAGUCCCGUACGGAUCG [C4U C11U C22G A70U], at most 0.5; as for GUUCCGUUGGCGUAUUGGUAACGCGUCUCCCUCCUAACAAGACGACUGCGGGUUCGAGUGCCGUCCGGAACG [A15U G38C G39A A43C C60G A65C], 0.559.
With GUUCCGUUGGCGUAAUGGUAACGCGUCUCCCUACUAUGGAGAAGACUGCGGGUUAGAGUCCCGUACGGAACG [C33A A37U C55A] the figure was at most 0.5.
Take GUUCCGUCGGCGUAACGGUAACGCGACUCCCUCCUAAGGAGAAGACUGCGGGUUCAAGUCCCGUGCGGAACG [U8C U16C U26A G56A A65G]: the yeast fitness was at most 0.5.
GUUCCGUUGGCGUAAUGGUGCCGCGUCUCCCUCCUAACGAGAAGACUGCGGGUUCAAGUCCCGUACGGAACG [A20G A21C G38C G56A]: the yeast fitness was at most 0.5.
As for GUUCCGUUGGUGUAAUGGUAACGCGUCUCCAUCCUAAGGAGAAGACUGCGAGUUCGAGUCCCGUACGGAACG [C11U C31A G51A], the figure is at most 0.5; as for GUUCCGUUGACGUAAUGGUAGCGCGUCUCCCUCCUAAGGAGAAGACUGCGGGUUCGAGUCCCGUAAGGAACG [G10A A21G C66A], at most 0.5.
Take GUUCCGUUGGCGUAAUGGUAACGCGUGUUCCUCCUAAGGAGAAGACUGCGGGUUCGAGUCCCCUACGGAACG [C27G C29U G63C]: the yeast fitness was at most 0.5.
As for GUUCCGAUGGGGUAAUGGUAACGCGUCUCCCUCCUAAGGAGAAGACUGCGGGUUCGAGUCCCGUACGGAACG [U7A C11G], the figure is at most 0.5; as for GCUCCGUUGGCGUAAUGGUAACCCGUCUCCCUCCUAAGGAGAAGACUGCGGGUUCGGGUCCCGUACGGAACG [U2C G23C A57G], at most 0.5.
With GUCCCGUGGGCGUAAUGGUAACGCGUCUCCCUCCUAAGGAGAUGACUGCGGGUUCGAGUCCGGUAAGGCACG [U3C U8G A43U C62G C66A A69C] the figure was at most 0.5.
Take GUUCCGUUGGCGUAAUGGUAACGCGUCUCCAUCAUAAGGAGAAGACUGCGGGUUCGAGUCCCGUACGGAGCG [C31A C34A A70G]: the yeast fitness is at most 0.5.
